The test system of the experiment is BDF1 mice, colon carcinoma 38 sc, T/C %. In words: NCI In Vivo Anticancer Drug Screen. Data for tumor model Colon Carcinoma 38 (subcutaneous) in B6D2F1 (BDF1) mice. The essentials: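 Compound antitumor activity was assessed in mice carrying transplantable tumors. Survival or tumor size was recorded, and each value is the treated-group measurement divided by that of the vehicle-treated control group.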

The mark [1] stands for this setting: T/C endpoint: median tumor weight (est.), dose: 12.5 mg/kg/injection, schedule: Q07DX002 (ip), vehicle: saline, evaluated on day 20, higher T/C = larger tumour.
Where [2] appears, read: T/C endpoint: median tumor weight (est.), dose: 2.0 mg/kg/injection, schedule: Q07DX002 (ip), vehicle: saline, evaluated on day 20, higher T/C = larger tumour.
[3] abbreviates: T/C endpoint: median tumor weight (est.), dose: 50.0 mg/kg/injection, schedule: Q07DX002 (ip), vehicle: saline with Tween-80, evaluated on day 20, higher T/C = larger tumour.

The list shows only some results of the screen, not a fair sample: it gathers tests that were run many times, whatever their T/C, doses with no T/C, and many T/C values between a quarter and a half above the control. Further doses and runs are listed elsewhere. T/C: endpoint of the treated group in % of that of the vehicle group. Schedule codes are those of the source, taken here to give the interval after Q, in days (D) or hours (H), and the number of doses after X. Some T/C values carry the count of animals alive at the toxicity check (mostly the fifth day); without a count, all were alive then. Some entries hold several experiments; the values are given in rising order. Some doses have a count of surviving animals in place of a T/C: the source holds a T/C of zero for them, seemingly a mark for toxic or unscored doses. Survivors were counted at the toxicity check, usually on the fifth day, unless a day is given; later deaths do not show. For survival time, this PubChem deposit counts one and a half times the control or more as active, and values a quarter to a half above the control carry no call in these data; other NCI protocols may use other cut-offs.

With `CC(C)[C@](O)(C(=O)OCC1=CCN2CC[C@@H](O)[C@@H]12)[C@H](C)O`, the T/C by setting is: under setting [1], 144 % of control; (T/C endpoint: median tumor weight (est.), dose: 100.0 mg/kg/injection, schedule: Q07DX002 (ip), vehicle: saline, evaluated on day 20, higher T/C = larger tumour) 132 % of control [9 of 10 alive on day 20]; (T/C endpoint: median tumor weight (est.), dose: 200.0 mg/kg/injection, schedule: Q07DX002 (ip), vehicle: water, evaluated on day 20, higher T/C = larger tumour) 137 % of control. For the same compound, the survivor count was 6 of 10 on day 20 (T/C endpoint: median tumor weight (est.), dose: 25.0 mg/kg/injection, schedule: Q07DX002 (ip), vehicle: saline, higher T/C = larger tumour); 0 of 10 on day 20 (T/C endpoint: median tumor weight (est.), dose: 800.0 mg/kg/injection, schedule: Q07DX002 (ip), vehicle: water, higher T/C = larger tumour); 0 of 10 on day 20 (T/C endpoint: median tumor weight (est.), dose: 1600.0 mg/kg/injection, schedule: Q07DX002 (ip), vehicle: water, higher T/C = larger tumour).
Turning to `CSCS(=O)C[C@H](CO)NC(=O)/C=C/c1c(C)[nH]c(=O)[nH]c1=O` (some centres not stated), the T/C was 128 and 144 % of control (T/C endpoint: median tumor weight (est.), dose: 0.12 mg/kg/injection, schedule: Q07DX002 (ip), vehicle: saline, evaluated on day 20, higher T/C = larger tumour); 125 % of control under setting [2].
With `CC(=O)[C@]1(O)Cc2c(O)c3c(c(O)c2[C@@H](OC2CC(N)C(O)C(C)O2)C1)C(=O)c1c(O)cccc1C3=O` (some centres not stated), the T/C (T/C endpoint: median survival time, dose: 1.1 mg/kg/injection, schedule: Q07DX003 (iv), vehicle: water, higher T/C = longer survival) was 135 % of control [9 of 10 alive on day 60]. Further, for the setting “T/C endpoint: median survival time, dose: 4.3 mg/kg/injection, schedule: Q07DX003 (iv), vehicle: water, higher T/C = longer survival”, the survivor count was 3 of 10 on day 60.
As to `Nc1n[nH]c(N)n1`, the T/C (T/C endpoint: median tumor weight (est.), dose: 100.0 mg/kg/injection, schedule: Q07DX003 (ip), vehicle: saline, evaluated on day 20, higher T/C = larger tumour) was 55, 103 [9 of 10 alive], 108 [9 of 10 alive], 158 % of control; the T/C (T/C endpoint: median tumor weight (est.), dose: 200.0 mg/kg/injection, schedule: Q07DX003 (ip), vehicle: saline with Tween-80, evaluated on day 20, higher T/C = larger tumour) was 140 % of control; the T/C (T/C endpoint: median tumor weight (est.), dose: 200.0 mg/kg/injection, schedule: Q07DX003 (ip), vehicle: saline, evaluated on day 20, higher T/C = larger tumour) was 71, 81, 108, 147 % of control; the T/C (T/C endpoint: median tumor weight (est.), dose: 400.0 mg/kg/injection, schedule: Q07DX003 (ip), vehicle: saline, evaluated on day 20, higher T/C = larger tumour) is 57, 61, 65 [9 of 10 alive], 89 % of control; the T/C (T/C endpoint: median tumor weight (est.), dose: 800.0 mg/kg/injection, schedule: Q07DX003 (ip), vehicle: saline, evaluated on day 20, higher T/C = larger tumour) is 56, 60, 90 [9 of 10 alive], 129 % of control; the T/C (T/C endpoint: median tumor weight (est.), dose: 1600.0 mg/kg/injection, schedule: Q07DX003 (ip), vehicle: saline with Tween-80, evaluated on day 20, higher T/C = larger tumour) was 131 % of control. Besides, under “T/C endpoint: median tumor weight (est.), dose: 1600.0 mg/kg/injection, schedule: Q07DX003 (ip), vehicle: saline, evaluated on day 20, higher T/C = larger tumour”, the T/C was 35 [9 of 10 alive], 72 [8 of 10 alive], 80 [9 of 10 alive], 137 % of control [9 of 10 alive].
Take `O=NN(CCCl)C(=O)NC1[C@H](O)CCC[C@@H]1O` (some centres not stated): the T/C (T/C endpoint: median tumor weight (est.), dose: 2.5 mg/kg/injection, schedule: Q07DX002 (ip), vehicle: saline, evaluated on day 20, higher T/C = larger tumour) was 135 % of control. The survivor count by setting is: (T/C endpoint: median tumor weight (est.), dose: 20.0 mg/kg/injection, schedule: Q07DX002 (ip), vehicle: saline, higher T/C = larger tumour) 2 of 10 on day 20 and 3 of 10 on day 20; (T/C endpoint: median tumor weight (est.), dose: 40.0 mg/kg/injection, schedule: Q07DX002 (ip), vehicle: saline, higher T/C = larger tumour) 0 of 10 on day 20.
Take `CCN(C)N=Nc1ccc(C(N)=O)cc1`: the survivor count (T/C endpoint: median tumor weight (est.), dose: 400.0 mg/kg/injection, schedule: Q07DX002 (ip), vehicle: Klucel (hydroxypropylcellulose) (HPC), higher T/C = larger tumour) was 0 of 10 on day 20 and 1 of 10 on day 20.
As for `[Cl][Mn][Cl]`, the T/C is, setting by setting: under setting [2], 143 % of control; (T/C endpoint: median tumor weight (est.), dose: 4.0 mg/kg/injection, schedule: Q07DX002 (ip), vehicle: saline, evaluated on day 20, higher T/C = larger tumour) 139 % of control; (T/C endpoint: median tumor weight (est.), dose: 8.0 mg/kg/injection, schedule: Q07DX002 (ip), vehicle: saline, evaluated on day 20, higher T/C = larger tumour) 146 % of control; (T/C endpoint: median tumor weight (est.), dose: 16.0 mg/kg/injection, schedule: Q07DX002 (ip), vehicle: saline, evaluated on day 20, higher T/C = larger tumour) 130 and 133 % of control [9 of 10 alive on day 20]; (T/C endpoint: median tumor weight (est.), dose: 24.0 mg/kg/injection, schedule: Q07DX002 (ip), vehicle: saline, evaluated on day 20, higher T/C = larger tumour) 137 % of control; (T/C endpoint: median tumor weight (est.), dose: 64.0 mg/kg/injection, schedule: Q07DX002 (ip), vehicle: saline, evaluated on day 20, higher T/C = larger tumour) 135 % of control [9 of 10 alive on day 20]. The survivor count is, setting by setting: (T/C endpoint: median tumor weight (est.), dose: 128.0 mg/kg/injection, schedule: Q07DX002 (ip), vehicle: saline, higher T/C = larger tumour) 6 of 10 on day 20; (T/C endpoint: median tumor weight (est.), dose: 192.0 mg/kg/injection, schedule: Q07DX002 (ip), vehicle: saline, higher T/C = larger tumour) 0 of 10 on day 20.
In the case of `O=C1c2ccccc2C(=O)c2c1cn1c2Cc2ccccc2C1`, the survivor count is given as 6 of 10 on day 20 (T/C endpoint: median tumor weight (est.), dose: 60.0 mg/kg/injection, schedule: Q01DX005 (iv), vehicle: other, higher T/C = larger tumour); 4 of 10 on day 20 (T/C endpoint: median tumor weight (est.), dose: 150.0 mg/kg/injection, schedule: Q07DX002 (iv), vehicle: other, higher T/C = larger tumour); 0 of 10 on day 20 (T/C endpoint: median tumor weight (est.), dose: 300.0 mg/kg/injection, schedule: Q07DX002 (ip), vehicle: Klucel (hydroxypropylcellulose) (HPC), higher T/C = larger tumour). Under “T/C endpoint: median tumor weight (est.), dose: 150.0 mg/kg/injection, schedule: Q07DX002 (ip), vehicle: saline with Tween-80, evaluated on day 20, higher T/C = larger tumour”, the T/C was 137 % of control.
As to `ClC(Cl)(Cl)C1=NCc2nnn(Cc3ccccc3)c2N1`, the T/C was 132 % of control (T/C endpoint: median tumor weight (est.), dose: 12.5 mg/kg/injection, schedule: Q07DX002 (ip), vehicle: saline with Tween-80, evaluated on day 20, higher T/C = larger tumour); 126 % of control (T/C endpoint: median tumor weight (est.), dose: 50.0 mg/kg/injection, schedule: Q07DX002 (ip), vehicle: distilled water + Tween-80, evaluated on day 20, higher T/C = larger tumour); 135 % of control under setting [3]; 132 % of control (T/C endpoint: median tumor weight (est.), dose: 100.0 mg/kg/injection, schedule: Q07DX002 (ip), vehicle: distilled water + Tween-80, evaluated on day 20, higher T/C = larger tumour); 143 % of control (T/C endpoint: median tumor weight (est.), dose: 200.0 mg/kg/injection, schedule: Q07DX002 (ip), vehicle: saline with Tween-80, evaluated on day 20, higher T/C = larger tumour); 131 % of control [9 of 10 alive on day 20] (T/C endpoint: median tumor weight (est.), dose: 400.0 mg/kg/injection, schedule: Q07DX002 (ip), vehicle: distilled water + Tween-80, evaluated on day 20, higher T/C = larger tumour).
As for `CCCCCC1c2cc(O)ccc2OC1N1CCOCC1` (configuration not stated), under setting [3], the T/C is 144 % of control [9 of 10 alive on day 20]. In addition, the survivor count (T/C endpoint: median tumor weight (est.), dose: 1800.0 mg/kg/injection, schedule: Q07DX002 (ip), vehicle: saline with Tween-80, higher T/C = larger tumour) is 0 of 10 on day 20.
As to `CC(=O)Oc1ccccc1C(=O)O`, under “T/C endpoint: median tumor weight (est.), dose: 288.0 mg/kg/injection, schedule: Q07DX002 (ip), vehicle: saline with Tween-80, evaluated on day 20, higher T/C = larger tumour”, the T/C is 132 % of control [7 of 10 alive].
`C[CH2][Ge]([CH2]C)[CH2]C.C[CH2][Ge]([CH2]C)[CH2]C.C[CH2][Ge]([CH2]C)[O][Ge]([CH2]C)[CH2]C`: the T/C (T/C endpoint: median tumor weight (est.), dose: 100.0 mg/kg/injection, schedule: Q07DX002 (ip), vehicle: saline with Tween-80, evaluated on day 20, higher T/C = larger tumour) is 126 % of control. For the same compound, the survivor count (T/C endpoint: median tumor weight (est.), dose: 1600.0 mg/kg/injection, schedule: Q07DX002 (ip), vehicle: saline with Tween-80, higher T/C = larger tumour) was 0 of 10 on day 20.
With `CCN(CC)CCNc1ccc(C)c2sc3ccccc3c(=O)c12`, under setting [1], the T/C was 126 % of control. Further, where the note is “T/C endpoint: median tumor weight (est.), dose: 400.0 mg/kg/injection, schedule: Q07DX002 (ip), vehicle: suspension in saline, higher T/C = larger tumour”, the survivor count is recorded as 3 of 10 on day 20.
For `Cc1cc(NCCN(C(C)C)C(C)C)nc(/N=C(\N)Nc2ccc(Cl)c(C(F)(F)F)c2)n1`, the T/C (T/C endpoint: median tumor weight (est.), dose: 5.0 mg/kg/injection, schedule: Q07DX002 (ip), vehicle: Klucel (hydroxypropylcellulose) (HPC), evaluated on day 20, higher T/C = larger tumour) is 130 % of control. The survivor count (T/C endpoint: median tumor weight (est.), dose: 80.0 mg/kg/injection, schedule: Q07DX002 (ip), vehicle: Klucel (hydroxypropylcellulose) (HPC), higher T/C = larger tumour) is 1 of 10 on day 20.
With `CC1=C(/C=C/C(C)=C/C=C/C(C)=C/CO)C(C)(C)CCC1`, the T/C by setting is: (T/C endpoint: median tumor weight (est.), dose: 32.0 mg/kg/injection, schedule: Q07DX003 (ip), vehicle: saline with Tween-80, evaluated on day 20, higher T/C = larger tumour) 125 % of control; (T/C endpoint: median tumor weight (est.), dose: 256.0 mg/kg/injection, schedule: Q07DX003 (ip), vehicle: saline with Tween-80, evaluated on day 20, higher T/C = larger tumour) 128 % of control [9 of 10 alive].
Consider `CCCCc1ccc(-n2c(C)c(COC(=O)NC)c(COC(=O)NC)c2C)cc1`, for which the T/C (T/C endpoint: median tumor weight (est.), dose: 12.5 mg/kg/injection, schedule: Q07DX002 (ip), vehicle: Klucel (hydroxypropylcellulose) (HPC), evaluated on day 20, higher T/C = larger tumour) is 141 % of control and the T/C (T/C endpoint: median tumor weight (est.), dose: 25.0 mg/kg/injection, schedule: Q07DX002 (ip), vehicle: Klucel (hydroxypropylcellulose) (HPC), evaluated on day 20, higher T/C = larger tumour) was 141 % of control.

For the origin of these results see PubChem BioAssay AID212 (DTP/NCI, 2004).
